# Laboratory results as given in the supplement of paper PMC9433722.
# Counter-ions that a name gives are not always drawn. The list shows a part of the results. Single values are uncertain, as repeats are few or missing.
# Tested on: U2OS
# Test: cell viability (CCK-8) relative to DMSO control (% of control); higher = less cytotoxic
# Conditions: 10 µM; 48 h
row,Compound,cell viability
1,Nc1nc(=O)[nH]cc1F [Flucytosine],78.3
2,O=c1[nH]cnc2c1ncn2[C@H]1CC[C@@H](CO)O1 [Didanosine],112
3,NC1=NCC2c3ccccc3Cc3ccccc3N12 (configuration not stated) [Epinastine·HCl],81
4,C[C@]12C=CC(=O)C=C1CC[C@@H]1[C@@H]2[C@@H](O)C[C@@]2(C)[C@H]1CC[C@]2(O)C(=O)CO [Prednisolone],105
5,C[C@H](N)[C@H](O)c1cccc(O)c1 [Metaraminol Bitartrate],93.1
6,CNC(=O)c1cnn(-c2nc(N)c3ncn([C@@H]4O[C@H](CO)[C@@H](O)[C@H]4O)c3n2)c1 [Regadenoson],105
7,N[C@@H]1CONC1=O [Cycloserine],95.2
8,CO[C@H]1C[C@@H]2CC[C@@H](C)[C@@](O)(O2)C(=O)C(=O)N2CCCC[C@H]2C(=O)O[C@H]([C@H](C)C[C@@H]2CC[C@@H](O)[C@H](OC)C2)CC(=O)[C@H](C)/C=C(\C)[C@@H](O)[C@@H](OC)C(=O)[C@H](C)C[C@H](C)/C=C/C=C/C=C/1C [Rapamycin],66.8
9,COCCc1ccc(OCC(O)CNC(C)C)cc1 (configuration not stated) [Metoprolol Tartrate],102
10,CC(=O)OC(C)C[N+](C)(C)C (configuration not stated) [Methacholine Chloride],90.6
11,C#C[C@]1(O)CC[C@H]2[C@@H]3CCC4=CC(=O)CC[C@@H]4[C@H]3CC[C@@]21CC [Levonorgestrel],94.9
12,CC(C)(C)NCC(O)c1ccc(O)c(CO)c1 (configuration not stated) [Salbutamol Hemisulfate],116
13,CC(C)OC(=O)C(C)(C)Oc1ccc(C(=O)c2ccc(Cl)cc2)cc1 [Fenofibrate],108
14,CN(C)CCOc1ccc(/C(=C(/CCCl)c2ccccc2)c2ccccc2)cc1 [Toremifene Base],114
15,CCn1cc(C(=O)O)c(=O)c2cc(F)c(N3CCNCC3)cc21 [Norfloxacin],79.2
16,COc1ccccc1Oc1c(NS(=O)(=O)c2ccc(C(C)(C)C)cc2)nc(-c2ncccn2)nc1OCCO [Bosentan],95.1
17,CCCCCCCCCC(=O)N[C@@H](Cc1c[nH]c2ccccc12)C(=O)N[C@H](CC(N)=O)C(=O)N[C@@H](CC(=O)O)C(=O)N[C@@H]1C(=O)NCC(=O)N[C@@H](CCCN)C(=O)N[C@@H](CC(=O)O)C(=O)N[C@H](C)C(=O)N[C@@H](CC(=O)O)C(=O)NCC(=O)N[C@H](CO)C(=O)N[C@@H]([C@H](C)CC(=O)O)C(=O)N[C@@H](CC(=O)c2ccccc2N)C(=O)O[C@@H]1C [Daptomycin],86.5
18,NCCCCCC(=O)O [6-Aminocaproic acid],84.7
19,C[C@@H](O)[C@H]1C(=O)N2C(C(=O)O)=C(S[C@@H]3CN[C@H](C(=O)N(C)C)C3)[C@H](C)[C@H]12 [Meropenem],95.4
20,Cc1cc(NS(=O)(=O)c2ccc(N)cc2)no1 [Sulfamethoxazole],92.4
21,CC[C@@H](CO)NCCN[C@@H](CC)CO [Ethambutol Dihydrochloride],89.9
22,CC1(C)C[C@@H]1C(=O)N/C(=C\CCCCSC[C@H](N)C(=O)O)C(=O)O [Cilastatin Sodium],102
23,CC[C@H](C)[C@H](N)C1=N[C@H](C(=O)N[C@@H](CC(C)C)C(=O)N[C@H](CCC(=O)O)C(=O)N[C@H](C(=O)N[C@H]2CCCCNC(=O)[C@H](CC(N)=O)NC(=O)[C@@H](CC(=O)O)NC(=O)[C@H](Cc3cnc[nH]3)NC(=O)[C@@H](Cc3ccccc3)NC(=O)[C@H]([C@@H](C)CC)NC(=O)[C@@H](CCCN)NC2=O)[C@@H](C)CC)CS1 [Bacitracin],114
24,CO[C@H]1/C=C/O[C@@]2(C)Oc3c(C)c(O)c4c(O)c(c(/C=N/N5CCN(C)CC5)c(O)c4c3C2=O)NC(=O)/C(C)=C\C=C\[C@H](C)[C@H](O)[C@@H](C)[C@@H](O)[C@@H](C)[C@H](OC(C)=O)[C@@H]1C [Rifampicin],109
25,CCOC(=O)[C@H](CCc1ccccc1)N[C@@H](C)C(=O)N1Cc2cc(OC)c(OC)cc2C[C@H]1C(=O)O [Moexipril·HCl],102
26,C[C@]12C=CC(=O)N[C@@H]1CC[C@@H]1[C@@H]2CC[C@]2(C)[C@@H](C(=O)Nc3cc(C(F)(F)F)ccc3C(F)(F)F)CC[C@@H]12 [Dutasteride],74.4
27,Clc1ccccc1C(c1ccccc1)(c1ccccc1)n1ccnc1 [Clotrimazole],111

# Molecules above with an aryl methoxy group (2):
row,Compound,cell viability
16,COc1ccccc1Oc1c(NS(=O)(=O)c2ccc(C(C)(C)C)cc2)nc(-c2ncccn2)nc1OCCO [Bosentan],95.1
25,CCOC(=O)[C@H](CCc1ccccc1)N[C@@H](C)C(=O)N1Cc2cc(OC)c(OC)cc2C[C@H]1C(=O)O [Moexipril·HCl],102
